Experimental data taken from PubChem BioAssay AID192 (DTP/NCI, 2004).
The list does not hold the whole screen: it is rich in T/C values a quarter to a half above the control, in often repeated tests (any T/C) and in doses without a T/C. Further doses and runs are listed elsewhere. T/C gives the treated animals as a percentage of the vehicle group. Some doses have a count of surviving animals in place of a T/C: the source files T/C as zero there, which appears to mark a toxic dose or a test without result, not a measured value. Some doses without a T/C left all or most animals alive at the check, yet need not have been tolerated: survival well below the control is almost never listed, so the zero probably covers shortened survival too. Survivors were counted at the toxicity check, usually on the fifth day, unless a day is given; later deaths do not show. Schedules are NCI's codes, read here as Q, the interval in days (D) or hours (H), X, the number of doses. Some doses were run more than once; the results are listed from low to high. Where survival is the endpoint, this PubChem deposit counts one and a half times the control or more as active, and values a quarter to a half above the control carry no call in these data; other NCI protocols may use other cut-offs.

Test system: BDF1 mice, B16 melanoma ip, median survival T/C
Assay: NCI In Vivo Anticancer Drug Screen. Data for tumor model B16 Melanoma (intraperitoneal) in B6D2F1 (BDF1) mice
Details: T/C endpoint: median survival time, higher T/C = longer survival
How it was run: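 The ratio T/C compares compound-treated mice with vehicle-treated controls, using survival or tumor size as the endpoint in a transplantable tumor model.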

[1] = dose: 100.0 mg/kg/injection, schedule: Q01DX009 (ip), vehicle: saline
[2] = dose: 200.0 mg/kg/injection, schedule: Q01DX009 (ip), vehicle: saline
[3] = dose: 400.0 mg/kg/injection, schedule: Q01DX009 (ip), vehicle: saline
[4] = dose: 200.0 mg/kg/injection, schedule: Q01DX009 (ip), vehicle: Klucel (hydroxypropylcellulose) (HPC)
[5] = dose: 400.0 mg/kg/injection, schedule: Q01DX009 (ip), vehicle: Klucel (hydroxypropylcellulose) (HPC)
[6] = dose: 100.0 mg/kg/injection, schedule: Q01DX009 (ip), vehicle: Klucel (hydroxypropylcellulose) (HPC)

For `OCCN1CCN(CCCN2c3ccccc3C=Cc3ccccc32)CC1`, the T/C (dose: 6.25 mg/kg/injection, schedule: Q04DX003 (ip), vehicle: saline) was 130 % of control, the survivor count [1] was 1 of 10 and the survivor count (dose: 100.0 mg/kg/injection, schedule: Q04DX003 (ip), vehicle: saline) was 10 of 10. The survivor count [2] was 0 of 10, the survivor count (dose: 200.0 mg/kg/injection, schedule: Q04DX003 (ip), vehicle: saline) was 1 of 10 and the survivor count [3] was 0 of 10. The survivor count (dose: 400.0 mg/kg/injection, schedule: Q04DX003 (ip), vehicle: saline) was 0 of 10.
For `COc1cc2c(cc1OC)C1CCN3CCCC3N1CC2` (configuration not stated), the survivor count [4] was 2 of 10 and 5 of 10 and the survivor count [5] was 0 of 10.
With `CN1CCN(c2ccc([N+](=O)[O-])c3no[n+]([O-])c23)CC1` the T/C (dose: 2.5 mg/kg/injection, schedule: Q01DX009 (ip), vehicle: saline with Tween-80) was 128 % of control, the survivor count (dose: 20.0 mg/kg/injection, schedule: Q01DX009 (ip), vehicle: saline with Tween-80) was 10 of 10 and the T/C (dose: 20.0 mg/kg/injection, schedule: Q01DX011 (ip), vehicle: saline with Tween-80) was 128 % of control. For the same compound, the survivor count (dose: 40.0 mg/kg/injection, schedule: Q01DX009 (ip), vehicle: saline with Tween-80) was 10 of 10 and the survivor count (dose: 80.0 mg/kg/injection, schedule: Q01DX009 (ip), vehicle: saline with Tween-80) was 3 of 10.
With `Cc1ccc(CNc2ccc(Cl)cc2)cc1` the survivor count [4] was 5 of 10.
With `Cc1ccc(C)c(CCN)c1` the survivor count (dose: 50.0 mg/kg/injection, schedule: Q01DX009 (ip), vehicle: saline with Tween-80) was 10 of 10.
In the case of `CCSc1ccc2c(cc1=O)[C@@H](NC1OC(CO)C(O)C(O)C1O)CCc1cc(OC)c(OC)c(OC)c1-2` (some centres not stated), the survivor count (dose: 200.0 mg/kg/injection, schedule: Q01DX009 (ip), vehicle: other) is reported as 10 of 10 and the survivor count (dose: 400.0 mg/kg/injection, schedule: Q01DX009 (ip), vehicle: other) is reported as 10 of 10.
With `O=C(O)C1C2CC3C(C2)C31.[Ag]` (configuration not stated) the survivor count [6] was 0 of 10, the survivor count [4] was 0 of 10 and the survivor count [5] was 0 of 10.
In the case of `Cc1cc(OC(=O)c2ccc(N(C)C)cc2)ccc1[N+](=O)[O-]`, the survivor count [6] is reported as 10 of 10, the survivor count [4] is reported as 10 of 10 and the survivor count [5] is reported as 10 of 10.
In the case of `CC1(C)N=C(N)N=C(N)N1c1ccc(OCC(=O)N2CCOCC2)c(Cl)c1`, the survivor count [2] is reported as 3 of 6.
In the case of `CN1CCC=C(C(=O)N2c3ccccc3Sc3ccccc32)C1`, the survivor count [1] is reported as 9 of 10.
`C=C1C(=O)OC2CC3(C)CC(O)C(O)C(=C)C3CC12` (configuration not stated) was tested, and the survivor count [4] was 7 of 10.
In the case of `CC(C)(N)Cc1ccc(Cl)cc1`, the survivor count [2] is reported as 0 of 10 and the survivor count [3] is reported as 0 of 10.
For `CC(C)c1ccc(C(O)C2CC2)cc1` (configuration not stated), the survivor count (dose: 200.0 mg/kg/injection, schedule: Q01DX009 (ip), vehicle: saline with Tween-80) was 4 of 10.
For `c1cc2ccc3ccc(C4CO4)c4ccc(c1)c2c34` (configuration not stated), the survivor count (dose: 50.0 mg/kg/injection, schedule: Q01DX009 (ip), vehicle: Klucel (hydroxypropylcellulose) (HPC)) was 10 of 10.
`CC(C(=O)O)C(NC(=O)OCc1ccccc1)C(=O)O` (configuration not stated) was tested, and the survivor count (dose: 400.0 mg/kg/injection, schedule: Q04DX003 (ip), vehicle: other) was 10 of 10.
In the case of `Cc1c(CNc2ccc(C(=O)NC(CC(=O)O)CC(=O)O)cc2)ccc2nc(N)nc(N)c12`, the survivor count (dose: 0.5 mg/kg/injection, schedule: Q01DX009 (ip), vehicle: saline with Tween-80) is reported as 10 of 10, the survivor count (dose: 0.75 mg/kg/injection, schedule: Q01DX009 (ip), vehicle: saline) is reported as 10 of 10 and the survivor count (dose: 1.0 mg/kg/injection, schedule: Q01DX009 (ip), vehicle: saline with Tween-80) is reported as 10 of 10. The survivor count (dose: 1.5 mg/kg/injection, schedule: Q01DX009 (ip), vehicle: saline) was 10 of 10 and the survivor count (dose: 3.0 mg/kg/injection, schedule: Q01DX009 (ip), vehicle: saline) was 10 of 10.
In the case of `C[C@]12CC[C@@H]3c4ccc(OC(=O)Cc5ccc(N(CCCl)CCCl)cc5)cc4CC[C@H]3[C@@H]1CC[C@@H]2OC(=O)Cc1ccc(N(CCCl)CCCl)cc1`, the survivor count (dose: 64.0 mg/kg/injection, schedule: Q02DX009 (ip), vehicle: Klucel (hydroxypropylcellulose) (HPC)) is reported as 10 of 10, the survivor count (dose: 128.0 mg/kg/injection, schedule: Q02DX009 (ip), vehicle: Klucel (hydroxypropylcellulose) (HPC)) is reported as 10 of 10 and the survivor count (dose: 256.0 mg/kg/injection, schedule: Q02DX009 (ip), vehicle: Klucel (hydroxypropylcellulose) (HPC)) is reported as 10 of 10. For the same compound, the survivor count (dose: 512.0 mg/kg/injection, schedule: Q02DX009 (ip), vehicle: Klucel (hydroxypropylcellulose) (HPC)) was 10 of 10.
`CCCC[N+](CCCC)(CCCC)CCCC.Cc1ccc([SH2+])c([SH2+])c1.Cc1ccc([SH2+])c([SH2+])c1.[Fe+3]` was tested, and the survivor count [5] was 10 of 10 and the survivor count (dose: 400.0 mg/kg/injection, schedule: Q01DX009 (ip), vehicle: saline with Tween-80) was 10 of 10.
`O=C(OC1C(O)OC2COC(=O)c3cc(O)c(O)c(O)c3-c3c(cc(O)c(O)c3O)C(=O)OC2C1O)c1cc(O)c(O)c(O)c1` (configuration not stated) was tested, and the T/C (dose: 15.0 mg/kg/injection, schedule: Q01DX009 (ip), vehicle: saline) was 129 % of control and the survivor count (dose: 30.0 mg/kg/injection, schedule: Q01DX009 (ip), vehicle: saline) was 10 of 10.
`Cc1ccc(SSc2ccc(C)cc2[N+](=O)[O-])c([N+](=O)[O-])c1` was tested, and the survivor count [4] was 10 of 10 and the survivor count [5] was 7 of 10.
